Assay results reported in PubChem BioAssay AID588590 (National Center for Advancing Translational Sciences (NCATS), 2011).
In all, about 390,000 compounds went through this assay and about 4,000 (1%) were called active. The shares of active, inactive and inconclusive entries below differ from those in the screen. The call rests on the fitted dose curve; in most records, active means well fitted inhibition curve with a large enough effect; inconclusive means small, poorly fitted or top-dose-only effect, or another doubt; inactive means no such curve, though single readings can be large or run the other way. A potency beside an inconclusive call is a rough fit, not a confirmed value.

Protein sequences, listed by entry. Tags and fused reporters are not part of them. Lines headed by an entry give the natural chain unless they say otherwise; changes in a name come on top.
UniProt Q9UNA4: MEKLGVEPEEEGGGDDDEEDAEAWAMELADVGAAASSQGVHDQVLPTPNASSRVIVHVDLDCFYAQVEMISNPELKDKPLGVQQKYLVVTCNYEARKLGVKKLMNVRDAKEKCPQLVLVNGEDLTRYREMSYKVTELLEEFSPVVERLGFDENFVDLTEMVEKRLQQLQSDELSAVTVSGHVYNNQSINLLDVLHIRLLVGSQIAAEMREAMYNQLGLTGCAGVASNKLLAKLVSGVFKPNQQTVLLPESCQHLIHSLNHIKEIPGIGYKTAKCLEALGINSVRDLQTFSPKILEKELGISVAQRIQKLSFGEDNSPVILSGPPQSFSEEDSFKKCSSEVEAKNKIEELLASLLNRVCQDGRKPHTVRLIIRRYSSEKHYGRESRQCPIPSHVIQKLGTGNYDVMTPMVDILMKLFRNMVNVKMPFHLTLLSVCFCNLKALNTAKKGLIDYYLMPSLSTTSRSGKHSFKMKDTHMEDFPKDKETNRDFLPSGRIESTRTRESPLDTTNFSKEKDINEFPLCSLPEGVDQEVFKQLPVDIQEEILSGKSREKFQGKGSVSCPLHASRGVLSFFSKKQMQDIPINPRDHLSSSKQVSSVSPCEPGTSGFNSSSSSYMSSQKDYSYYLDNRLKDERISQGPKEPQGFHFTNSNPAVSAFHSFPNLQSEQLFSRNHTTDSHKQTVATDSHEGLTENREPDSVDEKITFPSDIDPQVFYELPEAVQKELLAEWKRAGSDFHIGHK

What follows are molecules tested against DNA polymerase iota (Homo sapiens) (UniProt Q9UNA4) (assay: qHTS for Inhibitors of Polymerase Iota). Conditions: Pol iota fluorescent replication assay, 10 min; series mostly up to 115 µM.
In short: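 Fluorescent replication assay read twice, at 0 min and 10 min after adding 50 nM (final) substrate. Enzyme (10 nM) and compounds were first incubated 15 min at room temperature; enzyme-free buffer wells were negative controls.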
Potency means the concentration at half of the fitted maximal effect.

Potency, inconclusive:
Cc1onc(-c2ccccc2)c1C(=O)Nc1sc2c(c1C(N)=O)CCC2 14.1 µM [inhibitor, full curve, poor fit]
Cc1cccc(N2CCN(S(=O)(=O)c3ccc4c(c3)C(C)(C)C(=O)N4C)CC2)c1C 12.6 µM [inhibitor, partial curve, poor fit]
CN(C)C(=O)CSc1nnc(-c2ccc(S(=O)(=O)N3CCCC3)cc2)n1C 100 µM [inhibitor, partial curve, poor fit]
Fc1cccc(NC(=S)NCc2ccccn2)c1 22.4 µM [inhibitor, partial curve, poor fit]
N#Cc1c([N+](=O)[O-])cc([N+](=O)[O-])cc1S(=O)(=O)Cc1ccccc1 28.2 µM [inhibitor, single point]
CN(CC(=O)Nc1cccc2ccccc12)c1ccc(S(=O)(=O)N2CCOCC2)cn1 89.1 µM [inhibitor, partial curve, poor fit]
Cc1nc2cccc(C(=O)NCc3ccccc3)c2o1 22.4 µM [inhibitor, single point]
Cc1ccc(-n2[nH]c(C)c(/C=N/Nc3ccc([N+](=O)[O-])cc3[N+](=O)[O-])c2=O)cc1C 31.6 µM [inhibitor, single point]
CCn1c(=O)c(C(=O)Nc2cccnc2)c(O)c2ccccc21 50.1 µM [inhibitor, partial curve, poor fit]
COc1ccc(CCNC(=O)Cn2nnc(C(=O)Nc3ccc(Br)cc3)c2N)cc1OC 70.8 µM [inhibitor, partial curve]
O=C(Nc1cc(-c2nc3ncccc3o2)ccc1Cl)c1cccs1 28.2 µM [inhibitor, single point]
COC(=O)c1ccc(/C=C/c2nc3ccccc3c(=O)[nH]2)cc1 44.7 µM [inhibitor, partial curve, poor fit]
CN1c2ccsc2C(O)=C(C(=S)Nc2ccccc2)S1(=O)=O 3.16 µM [inhibitor, single point]
Cc1cccc(OCc2nc(C#N)c(NCc3ccc4c(c3)OCO4)o2)c1 31.6 µM [inhibitor, single point]
CCN(CC)CCn1c2ccccc2c2cnc(N=CN(C)C)c(C#N)c21 35.5 µM [inhibitor, partial curve]
COc1ccc(Br)cc1/C=C(\C(=O)O)c1ccc(S(=O)(=O)N2CCCC2)s1 25.1 µM [inhibitor, full curve]
COc1ccc(CNC(=O)CN(Cc2ccc(F)cc2)C(=O)CCC(=O)Nc2nccs2)cc1 79.4 µM [inhibitor, partial curve, poor fit]
CC[n+]1c(/C=C/C=C/N(C(C)=O)c2ccccc2)sc2cc(OC)ccc21 17.8 µM [inhibitor, full curve, poor fit]
COc1ccc(CCNc2oc(-c3ccc(C)cc3)nc2C#N)cc1OC 56.2 µM [inhibitor, partial curve, poor fit]
O=C(CSc1nc2c([nH]c3ccccc32)c(=O)n1-c1ccccc1)NCc1ccc(F)cc1 79.4 µM [inhibitor, single point]
CCc1ccc2occ(CC(=O)Nc3nnc(C)s3)c2c1 89.1 µM [inhibitor, single point]
O=C1Cc2ccccc2C(=O)N1OCc1ccc(Cl)cc1 15.8 µM [inhibitor, partial curve, poor fit]
CCOC(=O)C[n+]1c(C)sc2ccc(OC)cc21 39.8 µM [inhibitor, partial curve, poor fit]
Cn1cnnc1SCC(=O)c1cc2ccccc2oc1=O 50.1 µM [inhibitor, partial curve, poor fit]
CC(C)(C)NC(=O)c1sccc1C(=O)O 17.8 µM [inhibitor, partial curve, poor fit]
O=C(Cc1cccs1)NCCc1csc(-c2ccccc2)n1 25.1 µM [inhibitor, single point]
O=C(Cn1ccc(=O)[nH]c1=O)Nc1ccc(O)c([N+](=O)[O-])c1 44.7 µM [inhibitor, partial curve]
Cc1cccc(C)c1NC(=O)NCCCN1CCN(c2ccccc2)CC1 79.4 µM [inhibitor, partial curve, poor fit]
COc1ccc(OC)c(C2=NS(=O)(=O)N(C)C(C(=O)Nc3ccc(C(C)=O)cc3)=C2)c1 79.4 µM [inhibitor, partial curve]
COC(=O)CC(NC(=O)c1ccco1)c1ccc(C(C)C)cc1 (stereo unspecified) 31.6 µM [inhibitor, partial curve]
Nc1ccc(N2CCOCC2)c2nonc12 7.94 µM [inhibitor, full curve, poor fit]
Cc1c(CCC(=O)O)c(=O)oc2c(C)c(OCc3ccccc3Cl)ccc12 39.8 µM [inhibitor, partial curve, poor fit]
O=C1CSC(=S)N1N=Cc1ccc2c(c1)OCO2 28.2 µM [inhibitor, partial curve]
Nc1c(Cl)cc(Cl)cc1C(=O)OCC(=O)NC1CC1 44.7 µM [inhibitor, partial curve, poor fit]
O=C(COC(=O)CCc1nc2ccccc2c(=O)[nH]1)Nc1c(Cl)cccc1C(F)(F)F 39.8 µM [inhibitor, single point]
O=S(=O)(c1ccc(S(=O)(=O)N2CCCC3(CCCCC3)C2)cc1)N1CCCCC1 112 µM [inhibitor, partial curve, poor fit]
c1cnc2c(SCc3ccc(-c4nnco4)cc3)cccc2c1 39.8 µM [inhibitor, partial curve, poor fit]
Cc1ccc(C)c(NC(=O)CCN2CCN(CCO)CC2)c1 2.82 µM [inhibitor, full curve, poor fit]
COc1cccc(C(=O)Nc2nnc(-c3ccc(F)cc3)o2)c1 39.8 µM [inhibitor, single point]
COc1ccc(C2CC(c3ccccc3)=NN2C(=O)c2cccs2)cc1 (stereo unspecified) 100 µM [inhibitor, partial curve, poor fit]
NCCn1c(-c2ccccc2)cc(C(=O)O)c1-c1ccccc1F 20 µM [inhibitor, single point]
Cc1onc(-c2ccccc2Cl)c1C(=O)NCCn1c(C)cc2ccccc21 89.1 µM [inhibitor, partial curve, poor fit]
Cn1nc(C(=O)Nc2ccc3c(c2)OCO3)c2ccccc2c1=O 89.1 µM [inhibitor, single point]
O=C(NCC(=O)N(Cc1cccs1)C(C(=O)NC1CCCCC1)c1ccncc1)c1ccco1 (stereo unspecified) 39.8 µM [inhibitor, single point]
CCOc1ccc(-c2cccc(NC(=O)COc3ccc(Cl)cc3)c2)nn1 100 µM [inhibitor, single point]
N#Cc1c(NC(=O)C2CC(c3ccccc3Cl)=NO2)sc2c1CCC2 (stereo unspecified) 20 µM [inhibitor, full curve, poor fit]
CC(C)c1nnc(NC(=O)c2nc(S(=O)(=O)Cc3ccccc3F)ncc2Cl)s1 31.6 µM [inhibitor, single point]

Molecules shown so far that contain a COOH group:
Potency, inconclusive:
COc1ccc(Br)cc1/C=C(\C(=O)O)c1ccc(S(=O)(=O)N2CCCC2)s1 25.1 µM [inhibitor, full curve]
CC(C)(C)NC(=O)c1sccc1C(=O)O 17.8 µM [inhibitor, partial curve, poor fit]
Cc1c(CCC(=O)O)c(=O)oc2c(C)c(OCc3ccccc3Cl)ccc12 39.8 µM [inhibitor, partial curve, poor fit]
NCCn1c(-c2ccccc2)cc(C(=O)O)c1-c1ccccc1F 20 µM [inhibitor, single point]

Following part:

Potency, active:
CC(C)C(=O)Nc1cc2c3c(c1)CCC(=O)N3CCC2 35.5 µM
CN(C)c1ccc(C=Nc2ccccc2C(N)=O)cc1 89.1 µM
CCc1ccc2c(c1)C(NC(C)=O)C(=O)N2CCN1CCOCC1 (stereo unspecified) 2.24 µM
COc1ccc(C(=O)/C=C/c2ccc(OCc3ccccc3)cc2)cc1CSCC(=O)O 44.7 µM

Potency, inactive:
COc1ccc(CNC(=O)CSc2nc3ccccc3n2C(C)=O)cc1
CCn1c(SCC(=O)Nc2cccc(OC)c2)nc2c(c1=O)SCC2
CCOc1ccc(NC(=O)CSC2=Nc3ccccc3C3=NC(CC(=O)NCc4ccccc4OC)C(=O)N23)cc1 (stereo unspecified)
CS(=O)(=O)C1=NSC2=NC(=O)/C(=C\c3ccc(OS(=O)(=O)c4ccccc4)cc3)C(=N)N21
COC(=O)/C=C/c1ccc2c(c1)S(=O)(=O)N(C1CCCC1)[C@H]2CC(=O)OC
Cc1nc(Nc2nc3ccccc3o2)nc2c1CCC2
Cc1ccc(CN2C(=O)C(O)(CC(=O)c3ccc(C)cc3)c3ccccc32)cc1 (stereo unspecified)
COc1ccccc1N1CCN(S(=O)(=O)c2ccc(-c3ccno3)cc2OC)CC1
O=C(NNc1ccc([N+](=O)[O-])cc1)c1ccccc1Cl
CCn1c(NN)nc2sc3c(c2c1=O)CCC3
CC(C)(C)c1ccc(C(=O)NNc2ncnc3c2cnn3-c2ccc(Cl)cc2)cc1
CCO[C@H]1OC(C(N)=O)=C[C@@H](C2CCCCC2)[C@@H]1CCCO
COc1ccc(NC(=O)c2ccco2)cc1NC(=O)c1ccc(C)cc1
O=C1/C(=C/c2coc3ccc(O)cc3c2=O)SC(=S)N1c1ccccc1
Cc1nc(NC(=O)CCl)sc1C(=O)N(C)C

Taken from the listing for reference:
Potency, inactive:
O=C1/C(=C/c2coc3ccc(O)cc3c2=O)SC(=S)N1c1ccccc1
Cc1nc(NC(=O)CCl)sc1C(=O)N(C)C
